The target in the assay is T1, 3xFLAG-B12 (UniProt Q9NXW2).
T1 sequence: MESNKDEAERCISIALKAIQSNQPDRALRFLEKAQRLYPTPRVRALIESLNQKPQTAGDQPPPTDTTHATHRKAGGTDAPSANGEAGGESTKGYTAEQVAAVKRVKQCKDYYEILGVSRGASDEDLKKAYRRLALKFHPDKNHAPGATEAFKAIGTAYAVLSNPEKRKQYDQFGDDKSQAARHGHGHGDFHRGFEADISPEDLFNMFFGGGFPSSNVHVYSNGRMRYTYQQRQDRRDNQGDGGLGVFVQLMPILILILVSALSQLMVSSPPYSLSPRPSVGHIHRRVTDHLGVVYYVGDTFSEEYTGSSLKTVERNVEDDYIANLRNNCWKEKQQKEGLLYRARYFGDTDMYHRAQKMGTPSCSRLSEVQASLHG
Put plainly: affinity purification with mass spectrometry; 3xFLAG-B12 stable Flp-In 293 T-REx cells; digitonin-permeabilised, pellet lysed in 50 mM Hepes pH 7.5, 150 mM NaCl, 1% deoxy Big CHAP; anti-FLAG M2 antibody and Protein G magnetic beads, 4°C; eluted with 3xFLAG peptide; shot gun mass spectrometry; parental cells as control.

No constants are given. Whether binding was seen depends on the method and setting. Binding seen in cells or lysates may run through a third protein. A yes stands for co-enrichment or nearness to the bait. Other partners may have been found. Where a sequence is shown, tags or fusion partners need not be part of it.

B1: NONO (protein, UniProt Q15233 1-471)
chain: MQSNKTFNLEKQNHTPRKHHQHHHQQQHHQQQQQQPPPPPIPANGQQASSQNEGLTIDLKNFRKPGEKTFTQRSRLFVGNLPPDITEEEMRKLFEKYGKAGEVFIHKDKGFGFIRLETRTLAEIAKVELDNMPLRGKQLRVRFACHSASLTVRNLPQYVSNELLEEAFSVFGQVERAVVIVDDRGRPSGKGIVEFSGKPAARKALDRCSEGSFLLTTFPRPVTVEPMDQLDDEEGLPEKLVIKNQQFHKEREQPPRFAQPGSFEYEYAMRWKALIEMEKQQQDQVDRNIKEAREKLEMEMEAARHEHQVMLMRQDLMRRQEELRRMEELHNQEVQKRKQLELRQEEERRRREEEMRRQQEEMMRRQQEGFKGTFPDAREQEIRMGQMAMGGAMGINNRGAMPPAPVPAGTPAPPGPATMMPDGTLGLTPPTTERFGQAATMEGIGAIGGTPPAFNRAAPGAEFAPNKRRRY
As to B1, the binding entry is reported as “binds”.

B2: SLC25A3 (protein, UniProt Q00325 50-362)
chain: AVEEQYSCDYGSGRFFILCGLGGIISCGTTHTALVPLDLVKCRMQVDPQKYKGIFNGFSVTLKEDGVRGLAKGWAPTFLGYSMQGLCKFGFYEVFKVLYSNMLGEENTYLWRTSLYLAASASAEFFADIALAPMEAAKVRIQTQPGYANTLRDAAPKMYKEEGLKAFYKGVAPLWMRQIPYTMMKFACFERTVEALYKFVVPKPRSECSKPEQLVVTFVAGYIAGVFCAIVSHPADSVVSVLNKEKGSSASLVLKRLGFKGVWKGLFARIIMIGTLTALQWFIYDSVKVYFRLPRPPPPEMPESLKKKLGLTQ
With B2, the binding entry is “binds”.

B3: EMC1 (protein, UniProt Q8N766 23-993)
chain: YEDQVGKFDWRQQYVGKVKFASLEFSPGSKKLVVATEKNVIAALNSRTGEILWRHVDKGTAEGAVDAMLLHGQDVITVSNGGRIMRSWETNIGGLNWEITLDSGSFQALGLVGLQESVRYIAVLKKTTLALHHLSSGHLKWVEHLPESDSIHYQMVYSYGSGVVWALGVVPFSHVNIVKFNVEDGEIVQQVRVSTPWLQHLSGACGVVDEAVLVCPDPSSRSLQTLALETEWELRQIPLQSLDLEFGSGFQPRVLPTQPNPVDASRAQFFLHLSPSHYALLQYHYGTLSLLKNFPQTALVSFATTGEKTVAAVMACRNEVQKSSSSEDGSMGSFSEKSSSKDSLACFNQTYTINLYLVETGRRLLDTTITFSLEQSGTRPERLYIQVFLKKDDSVGYRALVQTEDHLLLFLQQLAGKVVLWSREESLAEVVCLEMVDLPLTGAQAELEGEFGKKADGLLGMFLKRLSSQLILLQAWTSHLWKMFYDARKPRSQIKNEINIDTLARDEFNLQKMMVMVTASGKLFGIESSSGTILWKQYLPNVKPDSSFKLMVQRTTAHFPHPPQCTLLVKDKESGMSSLYVFNPIFGKWSQVAPPVLKRPILQSLLLPVMDQDYAKVLLLIDDEYKVTAFPATRNVLRQLHELAPSIFFYLVDAEQGRLCGYRLRKDLTTELSWELTIPPEVQRIVKVKGKRSSEHVHSQGRVMGDRSVLYKSLNPNLLAVVTESTDAHHERTFIGIFLIDGVTGRIIHSSVQKKAKGPVHIVHSENWVVYQYWNTKARRNEFTVLELYEGTEQYNATAFSSLDRPQLPQVLQQSYIFPSSISAMEATITERGITSRHLLIGLPSGAILSLPKALLDPRRPEIPTEQSREENLIPYSPDVQIHAERFINYNQTVSRMRGIYTAPSGLESTCLVVAYGLDIYQTRVYPSKQFDVLKDDYDYVLISSVLFGLVFATMITKRLAQVKLLNRAWR
In the case of B3, the binding entry is recorded as “binds”.

B4: BAP31 (protein, UniProt P51572 1-246)
chain: MSLQWTAVATFLYAEVFVVLLLCIPFISPKRWQKIFKSRLVELLVSYGNTFFVVLIVILVLLVIDAVREIRKYDDVTEKVNLQNNPGAMEHFHMKLFRAQRNLYIAGFSLLLSFLLRRLVTLISQQATLLASNEAFKKQAESASEAAKKYMEENDQLKKGAAVDGGKLDVGNAEVKLEEENRSLKADLQKLKDELASTKQKLEKAENQVLAMRKQSEGLTKEYDRLLEEHAKLQAAVDGPMDKKEE
Regarding B4, the binding entry is listed as “binds”.

B5: HM13 (protein, UniProt Q8TCT9 1-377)
chain: MDSALSDPHNGSAEAGGPTNSTTRPPSTPEGIALAYGSLLLMALLPIFFGALRSVRCARGKNASDMPETITSRDAARFPIIASCTLLGLYLFFKIFSQEYINLLLSMYFFVLGILALSHTISPFMNKFFPASFPNRQYQLLFTQGSGENKEEIINYEFDTKDLVCLGLSSIVGVWYLLRKHWIANNLFGLAFSLNGVELLHLNNVSTGCILLGGLFIYDVFWVFGTNVMVTVAKSFEAPIKLVFPQDLLEKGLEANNFAMLGLGDVVIPGIFIALLLRFDISLKKNTHTYFYTSFAAYIFGLGLTIFIMHIFKHAQPALLYLVPACIGFPVLVALAKGEVTEMFSYEESNPKDPAAVTESKEGTEASASKGLEKKEK
Turning to B5, the binding entry is “binds”.

B6: COPB2 (protein, UniProt P35606 1-906)
chain: MPLRLDIKRKLTARSDRVKSVDLHPTEPWMLASLYNGSVCVWNHETQTLVKTFEVCDLPVRAAKFVARKNWVVTGADDMQIRVFNYNTLERVHMFEAHSDYIRCIAVHPTQPFILTSSDDMLIKLWDWDKKWSCSQVFEGHTHYVMQIVINPKDNNQFASASLDRTIKVWQLGSSSPNFTLEGHEKGVNCIDYYSGGDKPYLISGADDRLVKIWDYQNKTCVQTLEGHAQNVSCASFHPELPIIITGSEDGTVRIWHSSTYRLESTLNYGMERVWCVASLRGSNNVALGYDEGSIIVKLGREEPAMSMDANGKIIWAKHSEVQQANLKAMGDAEIKDGERLPLAVKDMGSCEIYPQTIQHNPNGRFVVVCGDGEYIIYTAMALRNKSFGSAQEFAWAHDSSEYAIRESNSIVKIFKNFKEKKSFKPDFGAESIYGGFLLGVRSVNGLAFYDWDNTELIRRIEIQPKHIFWSDSGELVCIATEESFFILKYLSEKVLAAQETHEGVTEDGIEDAFEVLGEIQEIVKTGLWVGDCFIYTSSVNRLNYYVGGEIVTIAHLDRTMYLLGYIPKDNRLYLGDKELNIISYSLLVSVLEYQTAVMRRDFSMADKVLPTIPKEQRTRVAHFLEKQGFKQQALTVSTDPEHRFELALQLGELKIAYQLAVEAESEQKWKQLAELAISKCQFGLAQECLHHAQDYGGLLLLATASGNANMVNKLAEGAERDGKNNVAFMSYFLQGKVDACLELLIRTGRLPEAAFLARTYLPSQVSRVVKLWRENLSKVNQKAAESLADPTEYENLFPGLKEAFVVEEWVKETHADLWPAKQYPLVTPNEERNVMEEGKDFQPSRSTAQQELDGKPASPTPVIVASHTANKEEKSLLELEVDLDNLELEDIDTTDINLDEDILDD
On to B6, for which the binding entry is listed as “binds”.

B7: RPN1 (protein, UniProt P04843 24-607)
chain: ASSEAPPLINEDVKRTVDLSSHLAKVTAEVVLAHLGGGSTSRATSFLLALEPELEARLAHLGVQVKGEDEEENNLEVRETKIKGKSGRFFTVKLPVALDPGAKISVIVETVYTHVLHPYPTQITQSEKQFVVFEGNHYFYSPYPTKTQTMRVKLASRNVESYTKLGNPTRSEDLLDYGPFRDVPAYSQDTFKVHYENNSPFLTITSMTRVIEVSHWGNIAVEENVDLKHTGAVLKGPFSRYDYQRQPDSGISSIRSFKTILPAAAQDVYYRDEIGNVSTSHLLILDDSVEMEIRPRFPLFGGWKTHYIVGYNLPSYEYLYNLGDQYALKMRFVDHVFDEQVIDSLTVKIILPEGAKNIEIDSPYEISRAPDELHYTYLDTFGRPVIVAYKKNLVEQHIQDIVVHYTFNKVLMLQEPLLVVAAFYILFFTVIIYVRLDFSITKDPAAEARMKVACITEQVLTLVNKRIGLYRHFDETVNRYKQSRDISTLNSGKKSLETEHKALTSEIALLQSRLKTEGSDLCDRVSEMQKLDAQVKELVLKSAVEAERLVAGKLKKDTYIENEKLISGKRQELVTKIDHILDAL
As for B7, the binding entry is “binds”.
